# Measurements from PubChem BioAssay AID493014 (National Center for Advancing Translational Sciences (NCATS), 2011).
# Values joined by “and” are separate entries in the source; they are usually repeats but may differ in a detail not shown here. Equal values may be shown once. The list shows a part of the results. The main result of the screen is listed elsewhere. These columns were measured beside it and carry no call. The list favours compounds with an active or inconclusive main result. The note in brackets gives the kind of curve behind each potency; many fits are weak.
# Experiment: qHTS Assay to Find Inhibitors of Chronic Active B-Cell Receptor Signaling
# Conditions: ABC-DLBCL IkBa-CBG/CBR reporter, luminescence ratio (green luciferase fused to IkBa over red control in TMD8 lymphoma cells), 4 h
# In short: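 TMD8 ABC-DLBCL cells carrying doxycycline-inducible green luciferase fused to IkappaBalpha plus unfused red luciferase were exposed to compounds (up to 46 uM) for 4 hrs at 37C. Activity came from the overlap-corrected green/red luminescence ratio.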
# [1] = measured here: CBR red luminescence, cell number
# [2] = measured here: IkBa-CBG green luminescence
structure (smiles),measurement,setting,value
CC(C)C(=O)Nc1ccc(NC(=O)c2ccc([N+](=O)[O-])cc2Cl)cc1,AC50,[1],"2.31 µM [rising, full curve, poor fit]"
O=C(N/N=C/C(Br)=C/c1ccccc1)c1cc(-c2ccco2)[nH]n1,AC50,[1],"17.8 µM [falling, single point]"
COCCCNc1ncnc2c1cnn2-c1ccc(C)cc1C,AC50,[1],"6.51 µM [rising, single point]"
CCc1ccc(CNCCSc2nnnn2C)cc1,AC50,[1],"0.00731 µM [rising, full curve, poor fit]"
CCN1C(=NCCc2ccc(Br)cc2)N[C@@H](c2ccccc2)[C@H](C(=O)OC)[C@H]1C,AC50,[1],"11.2 µM [falling, partial curve, poor fit] and 32.6 µM [falling, single point]"
CC1=C(C)CC(C(=O)NNC(=O)c2ccccc2O)C(C(=O)O)C1 (configuration not stated),AC50,[1],"6.51 µM [falling, partial curve, poor fit]"
CC1=C(C(=O)OCCOC(C)C)C(c2cc3c(cc2Br)OCO3)C2=C(CCCC2=O)N1 (configuration not stated),AC50,[1],"29.1 µM [falling, partial curve, poor fit]"
O=C(O)CNS(=O)(=O)c1ccc(F)cc1,AC50,[1],"0.0651 µM [rising, full curve, poor fit]"
c1ccc2oc(-c3[nH]ncc3CN3CCC(N4CCSCC4)CC3)cc2c1,AC50,[1],"5.01 µM [falling, full curve]"
O=C(CC1Nc2cccc3cccc(c23)NC1=O)Nc1ccc(F)cc1 (configuration not stated),AC50,[1],"5.62 µM [falling, full curve, poor fit]"
COc1ccc(Cl)cc1-n1c(=S)sc2c(=O)[nH]c(SCC(=O)C(C)(C)C)nc21,AC50,[1],"17.8 µM [falling, single point]"
O=C1CC(N(CCc2ccccc2)C(=S)Nc2ccccc2)C(=O)N1c1ccc(F)cc1 (configuration not stated),AC50,[1],"35.5 µM [falling, single point]"
Cc1ccc(S(=O)(=O)N2CCSC2=Nc2ccccc2)cc1,AC50,[1],"35.5 µM [falling, partial curve, poor fit]"
O=C(/C=C/c1ccccc1)NCC(=O)N/N=C/c1cccs1,AC50,[1],"1.26 µM [rising, partial curve, poor fit]"
Cc1ccnc(NC(=O)c2cccc(NC(=O)COc3ccccc3)c2)c1,AC50,[1],"8.91 µM [falling, partial curve, poor fit]"
Cc1ccccc1Nc1c(-c2ccccn2)nc2ccccn12,AC50,[1],"35.5 µM [falling, single point]"
C=CCn1c(=NC(=O)c2cccc(N3C(=O)CCC3=O)c2)sc2cccc(OC)c21,AC50,[1],"10 µM [falling, partial curve]"
O=C(Nc1ccc2[nH]ccc2c1)c1ccc(F)cc1,AC50,[1],"8.91 µM [falling, partial curve, poor fit]"
COc1ccc2ccc(=O)oc2c1CC(=O)C(C)C,AC50,[1],"29.1 µM [rising, single point]"
CCOC(=O)c1c(N2C(=O)Nc3ccccc3N2O)n[nH]c1-c1cccc(Cl)c1,AC50,[1],"11.2 µM [falling, partial curve, poor fit]"
Cc1cc(/C=N/NC(=O)CC2(C)OCCO2)c(C)n1-c1cc(Cl)cc(Cl)c1,AC50,[1],"1.16 µM [falling, full curve, poor fit]"
COc1ccc(N=C2S/C(=C\c3ccc(C)s3)C(=O)N2CC(C)C)cc1,AC50,[1],"3.55 µM [falling, single point]"
O=C(Nc1ccc2cn[nH]c2c1)c1ccccc1F,AC50,[1],"20.6 µM [falling, single point]"
CCc1ccc(N2CC(C(=O)OCC(=O)Nc3ccc([N+](=O)[O-])cc3)CC2=O)cc1 (configuration not stated),AC50,[1],"29.1 µM [rising, single point]"
O=c1cnc2ccccc2n1CC1CCCCC1,AC50,[1],"35.5 µM [falling, single point]"
O=C(c1ccccc1)c1ccccc1N1C(=O)C=CC1=O,AC50,[1],"12.6 µM [falling, partial curve, poor fit]"
same,AC50,[2],"15.8 µM [rising, partial curve, poor fit]"
Cc1nc(-c2ccccc2Cl)sc1C(=O)/C=C/N(C)C,AC50,[1],"2.82 µM [rising, partial curve]"
CC(C)C(NC(=O)c1c(F)cccc1F)C(=O)NCCc1ccc(S(N)(=O)=O)cc1 (configuration not stated),AC50,[1],"14.1 µM [rising, partial curve, poor fit]"
CCOc1ccccc1NC(=O)CNC(=O)Cc1ccccc1,AC50,[1],"8.91 µM [falling, partial curve]"
Cc1onc(-c2ccccc2)c1CNC(=O)CN1C(=O)c2ccccc2C1=O,AC50,[1],"11.2 µM [rising, partial curve, poor fit]"
CC(C)c1cc(Br)ccc1OCCN1C(=O)NC(C)(C)C1=O,AC50,[1],"35.5 µM [falling, single point]"
O=C(COC(=O)Cn1cnc2ccccc2c1=O)Nc1ccccc1OC(F)F,AC50,[1],"0.517 µM [rising, partial curve, poor fit]"
O=c1cc(-c2ccccc2)nc(SCc2ccccc2)[nH]1,AC50,[1],"32.6 µM [rising, partial curve, poor fit]"
O=C1c2ccccc2C(=O)N1CCSc1nncs1,AC50,[1],"22.4 µM [rising, single point]"
Cc1cc(C)c(NC(=S)NC(CO)(CO)CO)c(C)c1,AC50,[1],"6.31 µM [rising, full curve]"
CCCOC(=O)c1ccc(NC(=O)CCC(=O)OCC)cc1,AC50,[1],"5.01 µM [falling, partial curve]"
COc1ccc(/C=N/N(C)C2=NCCN2)c(OC)c1OC,AC50,[1],"7.08 µM [falling, partial curve]"
COc1cccc(NC(=O)c2ccccc2F)c1,AC50,[1],"29.1 µM [falling, single point]"
COC(=O)c1cn(C(=O)c2ccc(OC)cc2)c2ccccc12,AC50,[1],"15.8 µM [rising, partial curve]"
same,AC50,[2],"20 µM [falling, partial curve]"
CC(O)c1cc2c(s1)c1cnn(Cc3ccccc3F)c(=O)c1n2C (configuration not stated),AC50,[1],"5.8 µM [rising, full curve]"
O=C(CN1CCN(S(=O)(=O)c2ccc(F)cc2)CC1)Nc1ccc(Cl)c(C(F)(F)F)c1,AC50,[1],"35.5 µM [falling, single point]"
CN(CC(=O)Nc1ccc(Cl)c(C(F)(F)F)c1)CC(=O)NC1CCCCC1,AC50,[1],"2.59 µM [rising, partial curve, poor fit]"
C=CCC[C@@H](Cc1ccc(F)cc1)C(=O)OC[C@H](Cc1c[nH]c2ccccc12)NC(=O)[C@H](CC=C)CC(=O)N(CCO)Cc1ccccc1,AC50,[1],"16.4 µM [falling, single point]"
COc1ccc(C(c2c(C)[nH]n(C(N)=S)c2=O)C(C#N)C#N)cc1 (configuration not stated),AC50,[1],"18.4 µM [falling, single point]"
CNc1nc(-c2c[nH]c3ccccc23)cs1,AC50,[1],"3.66 µM [falling, full curve]"
CCOC(=O)/C(C#N)=C1\C(=O)N(Cc2ccccc2)c2ccccc21,AC50,[1],"35.5 µM [falling, single point]"
CCOC(=O)c1cnc2nc(Cc3ccccc3)[nH]n2c1=O,AC50,[1],"17.8 µM [falling, single point]"
CCOC(=O)C1CCCN(C(=O)c2ccccc2[N+](=O)[O-])C1 (configuration not stated),AC50,[1],"3.98 µM [falling, full curve]"
COCCNC(=S)N/N=C(\C)c1ccccc1OC,AC50,[1],"32.6 µM [rising, single point]"
same,AC50,[2],"29.1 µM [falling, single point]"
Nn1c(SCC(=O)Nc2ccc(F)cc2F)nnc1-c1cccnc1,AC50,[1],"14.1 µM [falling, partial curve]"
Cc1ccc(Cn2nc(C)c3cc(C(=O)OCC(N)=O)sc32)cc1,AC50,[1],"0.82 µM [rising, partial curve, poor fit]"
COc1ccc(Br)c(C(=O)OCC(=O)NC2CCCCCC2)c1,AC50,[1],"29.1 µM [falling, single point]"
O=C(c1cccc(S(=O)(=O)N2CCOCC2)c1)N1CCN(C/C=C/c2ccccc2)CC1,AC50,[1],"29.1 µM [falling, partial curve, poor fit]"
CC1C2CC(C/C2=N/NC(=O)c2cccs2)C1(C)C (configuration not stated),AC50,[1],"15.8 µM [falling, partial curve]"
O=C(c1cc2cc(Br)ccc2o1)N1CCCCC1,AC50,[1],"2.51 µM [rising, partial curve]"
C=CCc1c(C)nc(SC)nc1Nc1ccccc1,AC50,[1],"7.31 µM [falling, partial curve, poor fit]"
same,AC50,[2],"18.4 µM [rising, partial curve, poor fit]"
Nn1c(SCC(=O)Nc2nccs2)nnc1C1CC1,AC50,[1],"2.82 µM [rising, partial curve, poor fit]"
CCCn1c(NC(=O)C23CC4CC(CC(O)(C4)C2)C3)nc2ccccc21,AC50,[1],"17.8 µM [rising, single point]"
COc1ccc2c(C)cc(SCC(=O)Nc3cc(C(N)=O)cc(C(N)=O)c3)nc2c1,AC50,[1],"0.794 µM [rising, full curve, poor fit]"
CC(=O)c1ccc2c(c1)N(CCCN1CCC(CCO)CC1)c1ccccc1S2,AC50,[1],"20.6 µM [falling, single point]"
COc1ccc2c(c1)OC[C@H]1[C@H]2N2C(=O)c3cc(Cl)ccc3NC(=O)[C@@]2(C)[C@H]1c1ccccc1,AC50,[1],"5.8 µM [falling, full curve]"
O=C(Cc1ccc([N+](=O)[O-])cc1)OCc1c(F)cccc1Cl,AC50,[1],"22.4 µM [rising, partial curve, poor fit]"
O=C(CN1C(=O)S/C(=C\c2ccccc2Cl)C1=O)NCCCn1ccnc1,AC50,[1],"12.6 µM [falling, partial curve, poor fit]"

# Shown with tabs: entries from further up.
structure (smiles)	measurement	setting	value
Cc1ccc(S(=O)(=O)N2CCSC2=Nc2ccccc2)cc1	AC50	[1]	35.5 µM [falling, partial curve, poor fit]
COC(=O)c1cn(C(=O)c2ccc(OC)cc2)c2ccccc12	AC50	[1]	15.8 µM [rising, partial curve]
Nn1c(SCC(=O)Nc2ccc(F)cc2F)nnc1-c1cccnc1	AC50	[1]	14.1 µM [falling, partial curve]

# Copied from the entries so far for reference:
structure (smiles),measurement,setting,value
O=C(O)CNS(=O)(=O)c1ccc(F)cc1,AC50,[1],"0.0651 µM [rising, full curve, poor fit]"
c1ccc2oc(-c3[nH]ncc3CN3CCC(N4CCSCC4)CC3)cc2c1,AC50,[1],"5.01 µM [falling, full curve]"
